Assay results from article PMC12410181.
No constants are given. Whether binding was seen depends on the method and setting. In cells and extracts the contact can be indirect. Some binding calls cover weakened binding; strength is not graded here.

The chains behind the UniProt entries cited, without tags or fusion partners.
UniProt P06493: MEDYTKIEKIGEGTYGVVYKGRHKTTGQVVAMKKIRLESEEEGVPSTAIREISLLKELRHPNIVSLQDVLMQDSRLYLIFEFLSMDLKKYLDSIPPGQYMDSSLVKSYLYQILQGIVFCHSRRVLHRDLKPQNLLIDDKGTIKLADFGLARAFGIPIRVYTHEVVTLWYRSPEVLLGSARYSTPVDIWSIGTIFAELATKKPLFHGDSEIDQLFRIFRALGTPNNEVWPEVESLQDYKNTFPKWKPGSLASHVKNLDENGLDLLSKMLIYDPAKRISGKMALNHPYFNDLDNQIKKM
UniProt O00571: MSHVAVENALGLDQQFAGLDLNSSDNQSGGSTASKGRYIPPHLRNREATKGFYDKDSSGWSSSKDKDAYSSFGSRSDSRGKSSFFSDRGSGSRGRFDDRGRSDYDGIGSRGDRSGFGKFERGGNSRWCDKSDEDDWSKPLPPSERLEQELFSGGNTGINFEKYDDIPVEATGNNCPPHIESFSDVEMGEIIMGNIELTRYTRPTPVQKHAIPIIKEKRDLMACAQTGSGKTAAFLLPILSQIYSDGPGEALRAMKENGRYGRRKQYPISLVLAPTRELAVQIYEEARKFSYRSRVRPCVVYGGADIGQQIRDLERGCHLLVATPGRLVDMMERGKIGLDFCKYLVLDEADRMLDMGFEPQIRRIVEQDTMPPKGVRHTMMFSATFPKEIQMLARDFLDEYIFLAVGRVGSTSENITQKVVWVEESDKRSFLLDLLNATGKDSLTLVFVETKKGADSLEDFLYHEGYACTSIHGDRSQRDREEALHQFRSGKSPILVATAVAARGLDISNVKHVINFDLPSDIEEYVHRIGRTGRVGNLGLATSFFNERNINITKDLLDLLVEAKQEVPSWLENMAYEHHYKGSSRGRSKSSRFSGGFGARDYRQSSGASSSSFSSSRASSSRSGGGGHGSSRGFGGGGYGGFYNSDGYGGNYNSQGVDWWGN
UniProt O00429: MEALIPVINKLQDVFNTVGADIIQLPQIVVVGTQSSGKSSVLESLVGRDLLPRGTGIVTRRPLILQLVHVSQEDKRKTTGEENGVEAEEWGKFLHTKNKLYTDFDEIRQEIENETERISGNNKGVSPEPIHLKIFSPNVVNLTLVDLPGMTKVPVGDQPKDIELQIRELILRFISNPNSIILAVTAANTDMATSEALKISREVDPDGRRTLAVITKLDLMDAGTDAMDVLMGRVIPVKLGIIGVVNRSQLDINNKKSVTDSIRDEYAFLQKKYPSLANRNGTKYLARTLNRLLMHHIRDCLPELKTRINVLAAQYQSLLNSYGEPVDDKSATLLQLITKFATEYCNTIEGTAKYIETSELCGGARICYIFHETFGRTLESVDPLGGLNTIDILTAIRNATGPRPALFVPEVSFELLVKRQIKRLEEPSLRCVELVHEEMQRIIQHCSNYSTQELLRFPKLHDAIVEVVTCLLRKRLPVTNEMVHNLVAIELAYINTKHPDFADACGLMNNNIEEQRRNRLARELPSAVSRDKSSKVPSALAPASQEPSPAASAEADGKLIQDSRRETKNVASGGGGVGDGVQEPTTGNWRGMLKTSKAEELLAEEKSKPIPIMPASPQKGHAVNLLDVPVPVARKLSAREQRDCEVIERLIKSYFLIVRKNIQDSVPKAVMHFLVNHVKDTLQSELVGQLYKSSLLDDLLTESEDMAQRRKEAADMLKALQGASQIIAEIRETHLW

How the values were obtained:
[1] = target: cyclin-dependent kinase 1 (CDK1), endogenous (human (endogenous in BT549)) (UniProt P06493); experiment: co-IP; endogenous proteins of BT549 shCon or shDDX3 cells with or without PA (also RK33 treatment), immunoprecipitated with CDK1 antibody; mild lysis buffer, protein A/G agarose, 4 °C overnight; Western blot for DRP1 and DDX3
[2] = target: DEAD-box polypeptide 3, X-linked (DDX3), endogenous (human (endogenous in BT549)) (UniProt O00571); experiment: co-IP; endogenous proteins, mitochondrial and cytosol fractions, with or without CCCP; mild lysis buffer (25 mM Tris-HCl pH 7.4, 150 mM NaCl, 1 mM EDTA, 1 % NP-40), protein A/G agarose, 4 °C overnight; Western blot
[3] = target: DEAD-box polypeptide 3, X-linked (DDX3), endogenous (human (endogenous in BT549)) (UniProt O00571); experiment: co-IP; endogenous proteins of BT549 cells (also shCon or shDDX3) treated with or without PA or CCCP, immunoprecipitated with DDX3 antibody; mild lysis buffer, protein A/G agarose, 4 °C overnight; Western blot for DRP1 and CDK1
[4] = target: exogenous DDX3 (UniProt O00571); experiment: co-IP; exogenously expressed DDX3 and DRP1; mild lysis buffer (25 mM Tris-HCl pH 7.4, 150 mM NaCl, 1 mM EDTA, 1 % NP-40), protein A/G agarose, 4 °C overnight; Western blot

Substance	binding [1]	binding [2]	binding [3]	binding [4]
DEAD-box polypeptide 3, X-linked (DDX3), endogenous (from UniProt O00571 1-662)	binds	–	–	–
dynamin-related protein 1 (DRP1), endogenous (from UniProt O00429 1-736)	binds	binds	binds	–
exogenous DRP1 (HA-DRP1) (from UniProt O00429 1-736)	–	–	–	binds
